Where two headings read alike, the source gives them in different places. Some results were stated once for a whole list of compounds, not compound by compound.
Assays:
Pyricularia oryzae [1] = type: in vivo; conditions: aqueous preparation comprising 50 ppm poured next to the roots, inoculated after five days, 6 days incubation, visual; untreated plants 80%
Pyricularia oryzae [2] = type: in vivo; conditions: rice leaves treated with aqueous preparation comprising 250 ppm, inoculated after approx. 24 hours, 6 days incubation, visual; untreated plants 80%

Question: `CC(NC(=O)C(C#N)C1CC1)c1ccc(Cl)cc1` (centres unmarked) [I.1, N-(4′-Chlorophenyl)ethyl-1-cyclopropyl-1-cyanoacetamide] was tested. Which disease level (Pyricularia oryzae [1]) did it give?
Answer: ≤ 15%

Question: How did the disease level (Pyricularia oryzae [2]) turn out when “N-(4′-Chlorophenyl)-(R)-ethyl-2-cyano-3-cyclopropyl-3-methylbutanamide [I.10]” was run?
Answer: ≤ 10%

Question: What about the disease level (Pyricularia oryzae [1]) of the same compound?
Answer: ≤ 15%

Question: How did the disease level (Pyricularia oryzae [2]) turn out when “N-(4′-Chlorophenyl)-(R)-ethyl-2-cyano-3-cyclopropylbutanamide [I.8]” was run?
Answer: ≤ 10%

Question: What about the disease level (Pyricularia oryzae [1]) of the same compound?
Answer: ≤ 15%

Source: patent US6410486B1 (priority 1997, dated 2002)
